Test results: PubChem BioAssay AID445 (National Center for Advancing Translational Sciences (NCATS), 2006)
Some of the results follow. These are further read-outs of the screen, such as a control signal, another cell line or another target. No call is given for them. Compounds called inactive in the main read-out are mostly missing here. Words in brackets tell the shape of the fitted curve; partial curves, single points and poor fits give uncertain potencies.

Assay: IkB Signaling
Conditions: ABC-DLBCL IkBa-CBG/CBR dual luciferase ratio (green luciferase fused to IkBa over red control in OCI-Ly3 lymphoma cells), 4 h; measured here: control luc red channel unless noted
Outline: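 Curves were fitted separately to fusion (green), unfused (red) and ratio luminescence, then classed by r2, magnitude and activity. Cells: OCI-Ly3, 4 h compound plus doxycycline at 37C; 10 uM MG-132 defined full response.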

| Compound | AC50 |
| --- | --- |
| COc1ccc(NC(=O)C2CCN(S(=O)(=O)c3cccc(-c4noc(C)n4)c3)CC2)cc1OC | 3.98 µM [rising, single point] |
| CCOC(=O)c1oc2ccc(S(=O)(=O)n3nc(-c4ccc(C)cc4)cc3N)cc2c1C | 25.1 µM [falling, single point] |
| COc1cccc2sc(N(Cc3cccnc3)C(=O)c3ccc4c(c3)OCCO4)nc12 | 15.8 µM [falling, partial curve] |
| O=C(Nc1ccc2c(c1)OCO2)c1cccc(Cl)c1 | 25.1 µM [falling, single point] |
| O=C(Nc1ccc(-c2cn3ccsc3n2)cc1)c1ccc(F)c(S(=O)(=O)N2CCOCC2)c1 | 39.8 µM [rising, single point] [measured here: IkB-luc green channel] |
| CCN(CC)CCOC(=O)c1ccc(NC(=O)c2cc3c(=O)n(CC)c4ccccc4c3s2)cc1 | 0.794 µM [falling, full curve] |
| COc1ccccc1C1c2c(-c3ccc(Cl)cc3)n[nH]c2C(=O)N1c1ccc(C)cc1 (configuration not stated) | 12.6 µM [falling, partial curve] |
| Cc1ccccc1C(=O)Nc1cccc(OCc2cc(=O)n3c(C)csc3n2)c1 | 31.6 µM [falling, single point] |
| Cc1ccc(S(=O)(=O)N2CCC(C(=O)NCc3ccccc3Cl)CC2)cc1 | 1.58 µM [falling, partial curve, poor fit] |
| Cc1ccccc1S(=O)(=O)Cc1ccc(C(=O)N2CCN(c3cccc(Cl)c3)CC2)o1 | 20 µM [falling, partial curve] |
| COc1ccccc1N1CCN(c2ncnc3c2nnn3C)CC1 | 3.98 µM [rising, partial curve] |
| CN(c1ccccc1)S(=O)(=O)c1ccc(NC(=O)c2nc(S(C)(=O)=O)ncc2Cl)cc1 | 3.98 µM [falling, full curve] |
| COC(=O)c1c(NC(=O)CCCOc2cccc(C)c2)sc2c1CCC2 | 15.8 µM [falling, single point] |
| COc1ccc(C(=O)N2CCC[C@@]3(CCN(c4cccc(-c5ccccc5)c4)C3)C2)cc1 | 3.16 µM [falling, partial curve] |
| CC(=O)Nc1ccc(S(=O)(=O)N2CCN(C(C)CCc3ccccc3)CC2)cc1 (configuration not stated) | 15.8 µM [falling, partial curve] |
| O=C(c1ccco1)c1nnn(Cc2ccccc2)c1-c1ccccc1 | 31.6 µM [falling, single point] |

| Compound | AC50 |
| --- | --- |
| Cc1cc(C)n(-c2nnc(Nc3ccc(C)c(C)c3)c3ccccc23)n1 | 39.8 µM [falling, single point] |
| O=C1Nc2ccccc2Oc2cc(Oc3ccccc3)ccc21 | 5.01 µM [rising, partial curve] |
| Cc1cccc(NC(=O)Cn2cc(C(=O)C3CCCCC3)c3ccccc32)c1 | 7.94 µM [falling, partial curve] |
| CCOC(=O)COc1ccc(C2C(C(=O)OC)=C(C)NC3=C2C(=O)c2ccccc23)cc1Cl (configuration not stated) | 7.94 µM [falling, partial curve] |
| CCOC(=O)CC(NC(=O)CCc1c(C)nc2c(-c3ccccc3)c(C)nn2c1C)c1ccc(OC(C)C)cc1 (configuration not stated) | 20 µM [falling, partial curve] |
| CSc1ccc(CCNC(=O)NCc2noc3ccccc23)cc1 | 25.1 µM [falling, single point] |
| COc1ccc(CNc2nc(-c3ccco3)nn2S(=O)(=O)c2ccc(Cl)cc2)cc1OC | 12.6 µM [falling, partial curve] |
| O=C(CSc1cn(CC(=O)N2CCCC2)c2ccccc12)Nc1ccc(Cl)cc1 | 12.6 µM [falling, partial curve] |
| CCCCCCCCCCCCC/C=C\[C@H](O)[C@H](N)CO | 39.8 µM [falling, partial curve, poor fit] [measured here: IkB-luc green channel] |
| O=C(Nc1cccc(C(F)(F)F)c1)c1ccc2snnc2c1 | 3.98 µM [rising, partial curve] |
| CCOC(=O)C1CCCN(c2ncnc3c2nnn3C)C1 (configuration not stated) | 5.01 µM [rising, partial curve] |
| COc1cccc(NC(=O)c2oc3ccccc3c2NC(=O)c2cc3ccccc3o2)c1 | 15.8 µM [falling, partial curve] |
| CCCOC(=O)Nc1nc2ccccc2o1 | 25.1 µM [falling, single point] |
| O=S(=O)(Nc1ccc(F)cc1F)c1ccc(-n2cccn2)cc1 | 31.6 µM [falling, single point] |
| CCOc1ccc(-c2nnc(SCC(=O)c3ccc(Br)cc3)n2-c2ccccc2)cc1 | 20 µM [rising, single point] |
| CC(C)c1ccc(Nc2nc(NCc3ccco3)nc(N3CCOCC3)n2)cc1 | 39.8 µM [falling, single point] |

Some of these compounds in order of molecular weight, high to low:

| Compound | AC50 |
| --- | --- |
| Cc1cccc(NC(=O)Cn2cc(C(=O)C3CCCCC3)c3ccccc32)c1 | 7.94 µM [falling, partial curve] |
| Cc1cc(C)n(-c2nnc(Nc3ccc(C)c(C)c3)c3ccccc23)n1 | 39.8 µM [falling, single point] |
| CCOC(=O)C1CCCN(c2ncnc3c2nnn3C)C1 (configuration not stated) | 5.01 µM [rising, partial curve] |
